Source: PubChem BioAssay AID1439 (NMMLSC, 2008)
About 770 (0.35%) of roughly 220,000 compounds were called active. Inconclusive results, whose numbers are uncertain, are shown with a selection of clear calls. Rule as the data show it: active = binding response below about 49% or above about 150%; inconclusive = no clear call, values can overlap the other calls; inactive = in between.

Amino acid sequences for entries named in this document (tags omitted).
UniProt P09471, whole entry, looked up: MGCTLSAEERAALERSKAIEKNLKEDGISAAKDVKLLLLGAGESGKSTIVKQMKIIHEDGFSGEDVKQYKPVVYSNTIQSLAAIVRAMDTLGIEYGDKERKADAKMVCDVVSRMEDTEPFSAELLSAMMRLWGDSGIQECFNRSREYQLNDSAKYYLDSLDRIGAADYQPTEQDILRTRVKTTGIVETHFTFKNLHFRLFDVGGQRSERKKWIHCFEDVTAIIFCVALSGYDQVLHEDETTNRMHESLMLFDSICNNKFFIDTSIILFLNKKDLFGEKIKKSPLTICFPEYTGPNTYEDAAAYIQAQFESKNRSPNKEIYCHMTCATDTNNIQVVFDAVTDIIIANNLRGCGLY

Each compound was assayed against Guanine nucleotide-binding protein G(o) subunit alpha (Homo sapiens) (UniProt P09471) (assay: RGS7-Galphao binding modulators, primary screen, biochemical, multiplexed bead flow cytometry (AID 1439;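 also: fluorescent Galphao held in activated GDP-AlF4 state binding bead-coupled RGS7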)). Settings: at 10 µM, actives lie on both sides.

Structure (SMILES) | binding response (% of control)
O=C1CC(C(=O)Nc2ccc(Cl)c(Cl)c2)S/C(=N\N=C\c2ccco2)N1 (stereo not drawn) | inconclusive: 122%
Cc1ccc(-n2c(SCC(=O)NC3CCS(=O)(=O)C3)nc3ccccc3c2=O)cc1 (stereo not drawn) | inconclusive: 100%
COC(=O)c1ccc(C23CC4(C2)[C@H](CN(C)[C@@H]4c2ccccc2)C3c2ccc(C(F)(F)F)cc2)cc1 (stereo partly drawn) | inconclusive: 101%
Cc1ccccc1CNc1nnnn1C | inconclusive: 124%
Cc1cccc(Oc2ccc(Cl)cc2N)c1 | inactive: 98.5%
CC1CCN(c2nnc(-c3ccccc3)c3ccccc23)CC1 | inconclusive: 96.9%
Cc1[nH]c2ccccc2c1/C=N/NC(=O)c1cc(-c2ccccc2)n[nH]1 | inconclusive: 74.3%
C=CCSC1=N/C(=C\c2ccc(C(=O)O)cc2)C(=O)S1 | inconclusive: 117%
N#Cc1c(N)nc(Sc2ccc(Cl)cc2)c(C#N)c1-c1ccccc1Cl | inconclusive: 87.4%
CC1(C)c2cc(Cl)ccc2-n2c1cc(O)c(-c1ccccc1)c2=O | inconclusive: 89.5%
CC(=O)Nc1ccc(Nc2ccccc2)cc1 | inconclusive: -40.3%
COc1ccccc1NC(=S)N1CCN(C(=O)C2CCCO2)CC1 (stereo not drawn) | inactive: 103%
CN(C=C1C(=O)CC(C)(C)CC1=O)CCN1CCNCC1 | inactive: 98.7%
CCOc1ccc(CN2C(=O)CC(=O)N(S(=O)(=O)c3ccc(OCC)cc3)C2=O)cc1 | inconclusive: 81.9%
COc1ccc(CCc2nnc(CCC(=O)NCCc3ncccc3C)o2)cc1 | inactive: 103%
COc1ccccc1NC(=O)N1CCN(c2ccnc3cc(Cl)ccc23)CC1 | inconclusive: 51.1%
COc1ccc(Cn2c(C)nnc2-c2cnn(C)c2N)cc1OC | inactive: 101%
O=C(CSc1nnc2ccc(-c3ccncc3)nn12)N1CCCCC1 | inconclusive: 91.8%
CCOC(=O)c1c(NC(=O)N/N=C/c2ccccc2OCC)sc(C(C)=O)c1C | inactive: 90.1%
COc1cc(/C=C/C(=O)OCc2c(C)noc2C)ccc1OC(F)F | inconclusive: 102%

Rewritten as a markdown table: entries from further up

| Structure (SMILES) | binding response (% of control) |
| --- | --- |
| COc1ccccc1NC(=O)N1CCN(c2ccnc3cc(Cl)ccc23)CC1 | inconclusive: 51.1% |
| COc1ccc(Cn2c(C)nnc2-c2cnn(C)c2N)cc1OC | inactive: 101% |
| O=C(CSc1nnc2ccc(-c3ccncc3)nn12)N1CCCCC1 | inconclusive: 91.8% |
| CCOC(=O)c1c(NC(=O)N/N=C/c2ccccc2OCC)sc(C(C)=O)c1C | inactive: 90.1% |

Later entries

Structure (SMILES) | binding response (% of control)
O=C(COc1ccccc1[N+](=O)[O-])NNC(=O)Nc1cccc2ccccc12 | inactive: 102%
CC(C)(C)NC(=O)NC(=O)COC(=O)c1cccc(F)c1 | inactive: 93.7%
CN1C(=S)SC(/[N+]([O-])=C/c2c(F)cccc2Cl)C1(C)C (stereo not drawn) | inconclusive: 127%
COc1cc2c(cc1OC)CN(S(=O)(=O)c1ccc3c(c1)OCCO3)CC2 | inactive: 96.7%
COc1cc(/C=C/C(=O)O)cc(S(=O)(=O)Nc2cccc(S(=O)(=O)N3CCOCC3)c2)c1OC | inconclusive: 96.2%
CC1CCN(CC(=O)Nc2cccc(Cl)c2)CC1 | inconclusive: 103%
Cc1ccc(S(=O)(=O)Nc2cc(C(=O)Nc3cc(C)cc(C)c3)ccc2Cl)cc1 | inactive: 98.6%
O=C(NCC1CC1)c1ccc2c3n(nc2c1)-c1ccccc1CO3 | inconclusive: 97.9%
COc1cc2nc(SCC(N)=O)n(CCC3=CCCCC3)c(=O)c2cc1OC | inactive: 97.8%
Cc1cc(OCC(=O)OCC(=O)Nc2cc(C(F)(F)F)ccc2N2CCOCC2)ccc1Cl | inactive: 101%
CC(C)c1nc(SCC(=O)c2c[nH]c3ccccc23)n[nH]1 | inconclusive: 80.6%
C=CCC1(C#N)C(=S)NC(C)=C(C(=O)OCC)C1c1ccccc1 (stereo not drawn) | inconclusive: 109%
Cc1nn(C(C)C(=O)NCCCc2ccccc2)c(=O)c2cc3occc3n12 (stereo not drawn) | inactive: 139%
COc1cc(CNC(C)(C)C)ccc1OCC(=O)NC(C)(C)C | inconclusive: 90.3%
C=CCn1c(O)c(N=NC(=O)CNC(=O)/C=C/c2ccc(OC)cc2)c2ccccc21 | inconclusive: 80.5%
Cc1ccc(C(=O)NCCc2ccc(F)cc2)s1 | inconclusive: 123%
CC(C)Cn1c(=S)[nH]c2cc(Cl)ccc21 | inconclusive: 97.3%
CNC(=O)COC(=O)c1cc(SC)ccc1Cl | inconclusive: 101%
CCOC(=S)N/C(=N\S(C)(=O)=O)c1ccccc1 | inconclusive: 104%
CCN(CC)c1ccc(NC(=O)Nc2cccc(C(C)=O)c2)cc1 | active: -3.36%

Structure (SMILES) | binding response (% of control)
Cc1nc2c(ncn2-c2ccccc2)c(=O)n1NC(=O)CN1CCCC1 | inconclusive: -319%
O=C(CN1C(=O)NC2(CCCCC2)C1=O)N1CCN(S(=O)(=O)c2ccccc2)CC1 | inconclusive: 101%
Cc1ccc(-c2nnc(SCC(=O)N/N=C/c3ccccc3C(=O)O)n2-c2ccc(C)cc2)cc1 | inconclusive: 78.3%
COc1ccccc1CNC(=O)COC(=O)Cc1cccs1 | inconclusive: 114%
Cc1ccc2[nH]c(O)c(N=NC(=O)c3ccc(NS(=O)(=O)c4cccs4)cc3)c2c1 | inconclusive: 92.8%
N#Cc1cnc(Nc2ccc(F)cc2)nc1N | inconclusive: 113%
O=C(Cc1cccs1)Nc1cccc(C(=O)Nc2ccc(C(=O)O)cc2)c1 | inactive: 98.2%
O=C(COc1c(CO)cc(Br)cc1CO)NC1CCCc2ccccc21 (stereo not drawn) | inactive: 99.4%
O=C(NCCCN1CCOCC1)c1cc(C(=O)C2CCCCC2)c[nH]1 | inconclusive: 109%
CN(C)c1cccc2c(S(=O)(=O)NCc3ccc(S(N)(=O)=O)cc3)cccc12 | inconclusive: 108%
O=C(O)/C=C/C(=O)Nc1cccc2cccnc12 | inconclusive: 108%
COc1ccc(C2/C=C\CN(C(=O)C3CCCC3)CC(=O)N2Cc2ccc(F)cc2)cc1 (stereo not drawn) | inconclusive: 101%
Cn1ccnc1C(O)(c1ccccc1)c1ccccc1 | inconclusive: 136%
Cc1ccc2c(c1)Sc1c(ccc3ccccc13)N2 | inconclusive: 102%
CC(C)(C)C(=O)Nc1nc(NC(=O)C(C)(C)C)nc(-c2ccccc2Cl)n1 | inconclusive: 67.8%
COCCn1c(SCC(=O)N2CCc3ccccc32)nc2c(c1=O)SC(C)C2 (stereo not drawn) | inconclusive: 112%
O=C(Cc1nc(-c2cnccn2)no1)NNC(=O)Nc1ccccc1 | inconclusive: 82.9%
O=c1c2ccccc2ncn1-c1ccc(Cl)cc1Cl | inconclusive: 95.1%
